Our source for the binding values is article PMC4374719.

Amino acid sequences for entries named in this document (tags omitted).
UniProt P69332: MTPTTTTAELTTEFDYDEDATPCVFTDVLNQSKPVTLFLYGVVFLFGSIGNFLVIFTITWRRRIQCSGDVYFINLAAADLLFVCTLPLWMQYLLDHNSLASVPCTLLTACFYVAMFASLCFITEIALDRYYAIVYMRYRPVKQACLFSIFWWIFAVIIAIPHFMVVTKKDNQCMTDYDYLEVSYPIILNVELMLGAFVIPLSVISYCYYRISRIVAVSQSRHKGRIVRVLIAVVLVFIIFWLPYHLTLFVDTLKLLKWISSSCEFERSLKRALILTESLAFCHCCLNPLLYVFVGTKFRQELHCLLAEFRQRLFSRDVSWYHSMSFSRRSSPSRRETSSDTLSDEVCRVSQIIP

No constants are given. Whether binding was seen depends on the method and setting. Binding seen in cells or lysates may run through a third protein. Some results given as binding are weak or reduced against the parent protein; the word gives no strength.

The test concerns the target human cytomegalovirus US28, HA-tagged (human cytomegalovirus (HCMV)) (UniProt P69332). In words: co-IP; 293T cells transfected with SERCA2(b) and an HA-tagged viral GPCR; NP40 buffer (50 mM Tris-HCl pH 7.4, 150 mM NaCl, 1% NP-40, 5 mM EDTA); HA-agarose at 4°C for 4 h; immunoblot. (A western blot detects proteins with antibodies after separation by electrophoresis.)

Consider “SERCA2b, expressed from a plasmid in 293T cells (from UniProt P16615-1 1-1042) (enzyme)”, for which the binding entry is on record as “binds”.
